Reference: publication PMC8692132
Positions count from the first letter of the chain named. Results are given in words; binding and its absence hold for the method and conditions named. In cells and extracts the contact can be indirect. Some results given as binding are weak or reduced against the parent protein; the word gives no strength.

Chains of the proteins cited; added tags and fusions are not shown.
UniProt P02340: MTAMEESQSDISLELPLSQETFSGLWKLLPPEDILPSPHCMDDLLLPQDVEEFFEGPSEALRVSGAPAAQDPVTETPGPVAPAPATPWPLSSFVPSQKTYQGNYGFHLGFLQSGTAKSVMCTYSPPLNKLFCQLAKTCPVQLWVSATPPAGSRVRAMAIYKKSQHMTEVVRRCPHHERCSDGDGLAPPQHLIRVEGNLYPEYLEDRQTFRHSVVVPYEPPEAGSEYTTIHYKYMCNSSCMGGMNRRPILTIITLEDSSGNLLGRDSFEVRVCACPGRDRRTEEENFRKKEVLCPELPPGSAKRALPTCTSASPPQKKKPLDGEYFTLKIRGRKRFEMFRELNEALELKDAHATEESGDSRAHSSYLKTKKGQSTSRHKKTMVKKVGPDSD

How the values were obtained:
[1] = target: T1, PolG of wild type mice, endogenous in aortas (mouse (endogenous in aortas)) (UniProt P54099); experiment: co-IP; lysates of aortas of WT and PolG^D257A/D257A mice with or without Vit D3 treatment; anti-PolG or anti-p53 antibody or control IgG on protein A/G beads; blot with anti-p53 or anti-PolG
T1 sequence: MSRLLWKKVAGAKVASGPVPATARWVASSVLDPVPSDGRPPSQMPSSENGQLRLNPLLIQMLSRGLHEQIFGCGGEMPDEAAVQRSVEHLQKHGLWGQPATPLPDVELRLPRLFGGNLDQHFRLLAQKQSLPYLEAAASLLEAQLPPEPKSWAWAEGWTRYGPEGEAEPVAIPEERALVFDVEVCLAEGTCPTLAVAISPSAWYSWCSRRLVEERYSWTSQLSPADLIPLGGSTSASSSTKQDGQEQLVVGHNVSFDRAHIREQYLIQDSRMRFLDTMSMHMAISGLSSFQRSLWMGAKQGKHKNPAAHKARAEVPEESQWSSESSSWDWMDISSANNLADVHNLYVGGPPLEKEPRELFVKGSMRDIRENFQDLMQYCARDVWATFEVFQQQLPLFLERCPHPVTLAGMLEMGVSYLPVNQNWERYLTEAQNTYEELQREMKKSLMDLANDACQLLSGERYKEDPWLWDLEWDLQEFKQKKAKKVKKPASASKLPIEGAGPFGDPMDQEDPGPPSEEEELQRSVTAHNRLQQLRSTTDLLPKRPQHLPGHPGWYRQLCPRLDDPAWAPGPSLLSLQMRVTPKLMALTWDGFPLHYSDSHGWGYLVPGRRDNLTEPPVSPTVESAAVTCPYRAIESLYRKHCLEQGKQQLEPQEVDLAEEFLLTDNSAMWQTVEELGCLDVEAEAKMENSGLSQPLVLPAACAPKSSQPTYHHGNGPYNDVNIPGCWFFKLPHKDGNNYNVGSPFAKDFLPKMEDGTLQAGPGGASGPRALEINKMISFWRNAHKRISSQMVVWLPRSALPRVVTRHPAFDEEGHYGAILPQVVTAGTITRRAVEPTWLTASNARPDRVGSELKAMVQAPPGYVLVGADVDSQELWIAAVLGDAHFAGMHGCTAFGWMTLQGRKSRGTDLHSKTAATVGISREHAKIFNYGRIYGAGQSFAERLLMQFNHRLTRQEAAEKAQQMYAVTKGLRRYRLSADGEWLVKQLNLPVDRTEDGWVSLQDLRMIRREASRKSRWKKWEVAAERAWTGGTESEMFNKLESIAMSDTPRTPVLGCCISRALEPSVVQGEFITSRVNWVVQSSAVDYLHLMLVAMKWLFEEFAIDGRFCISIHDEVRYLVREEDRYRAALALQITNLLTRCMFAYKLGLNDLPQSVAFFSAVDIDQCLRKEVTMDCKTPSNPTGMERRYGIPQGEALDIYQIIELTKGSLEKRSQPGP

[2] = target: T2, PolG D257A of PolG^D257A/D257A mice, endogenous in aortas (mouse (endogenous in aortas)) (UniProt P54099); experiment: as above
T2 sequence: T1 sequence with D257A

In the case of “p53, endogenous in mouse aortas (from UniProt P02340 1-390)”, the binding [1] is reported as “binds” and the binding [2] is reported as “binds”.
